Data published in PubChem BioAssay AID493014 (National Center for Advancing Translational Sciences (NCATS), 2011).
This is one part of the list. These are further read-outs of the screen, such as a control signal, another cell line or another target. No call is given for them. Most of these compounds were active or inconclusive in the main read-out, so they are no random draw. Words in brackets tell the shape of the fitted curve; partial curves, single points and poor fits give uncertain potencies.

Test: qHTS Assay to Find Inhibitors of Chronic Active B-Cell Receptor Signaling
Settings: ABC-DLBCL IkBa-CBG/CBR reporter, luminescence ratio (green luciferase fused to IkBa over red control in TMD8 lymphoma cells), 4 h
Outline: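 Concentration-response series (up to 46 uM) were applied to TMD8 dual-reporter cells for 4 h at 37C with doxycycline. Green/red ratio, after filter-overlap correction, defined %Activity; red signal alone was normalised to basal cells and zero luminescence.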

[1] = measured here: CBR red luminescence, cell number
[2] = measured here: IkBa-CBG green luminescence

With `COc1ccc(-c2n(CC(=O)OC3CC(C)CCC3C(C)C)c3ccccc3[n+]2C)cc1` (configuration not stated) as the compound, how does the AC50 [1] read?
Its AC50 is 11.2 µM [rising, partial curve, poor fit].

For `O=C(CCS(=O)(=O)c1ccccc1)Nc1ccccc1F`, which AC50 [1] is on record?
Its AC50 is 35.5 µM [falling, single point].

With `COc1ccc(-c2csc(NC(=S)NC(=O)/C=C/c3ccco3)n2)cc1OC` as the compound, how does the AC50 [1] read?
The AC50 was 29.1 µM [rising, single point].

For `CCCC(=O)Nc1ccc2c(c1)nc1n2CCN(CCOC)C1`, which AC50 [1] is on record?
The AC50 was 31.6 µM [rising, partial curve, poor fit].

With `Clc1cccc(NC2=NCCC2)c1` as the compound, how does the AC50 [1] read?
Its AC50 is 29.1 µM [rising, single point].

For `Cc1csc(NC(=O)CSc2nnc(Cc3cccn3C)n2-c2ccc(F)cc2)n1`, which AC50 [1] is on record?
The AC50 was 18.4 µM [falling, partial curve].

For `Cn1c(Cn2c(=O)sc3ccccc32)nnc1SCC(=O)NC1CCCC1`, which AC50 [1] is on record?
Its AC50 is 32.6 µM [rising, single point].

For `COc1cc(CN2CCc3ccc(NC(=O)CCc4ccccc4OC)cc3C2)ccc1O`, which AC50 [1] is on record?
Its AC50 is 22.4 µM [falling, single point].

Which AC50 [1] does the source give for `COc1ccc(CN(CC(=O)NCc2ccccc2)C(=O)CCC(=O)Nc2cc(C)ccn2)cc1` here?
Its AC50 is 1.26 µM [rising, full curve].

For `O=C(NNS(=O)(=O)c1ccccc1)c1ccc(O)cc1`, which AC50 [1] is on record?
Its AC50 is 11.6 µM [falling, partial curve].

Which AC50 [1] does the source give for `COc1ccc(NC(=O)c2ccccc2NC(=O)c2ccccc2C(=O)O)c(OC)c1` here?
The AC50 was 22.4 µM [falling, single point].

With `Cc1ncc(CO)c2c1Oc1nc(-c3ccccc3)nc(SCC(=O)N3CCCCC3)c1C2` as the compound, how does the AC50 [1] read?
Its AC50 is 0.891 µM [rising, full curve, poor fit].

For `CCOC(=O)C1CCN(C(=O)COC(=O)/C=C/c2cccc(OC)c2OC)CC1`, which AC50 [1] is on record?
Its AC50 is 20.6 µM [rising, partial curve, poor fit].

With `COc1ccc(Cl)cc1Nc1nc(N)c2ccccc2n1` as the compound, how does the AC50 [1] read?
The AC50 was 0.112 µM [rising, full curve, poor fit].

Which AC50 [1] does the source give for `O=[N+]([O-])c1cccnc1NCCNc1ncc(C(F)(F)F)cc1Cl` here?
The AC50 was 5.01 µM [rising, partial curve].

Which AC50 [1] does the source give for `O=C(CCc1ccccc1)Nc1ccc(NS(=O)(=O)c2ccccc2)cc1` here?
The AC50 was 3.98 µM [rising, full curve, poor fit].

For `CC(=O)Cc1nsc(NC(=O)c2cc(-c3ccc(Cl)c(Cl)c3)oc2C)n1`, which AC50 [1] is on record?
The AC50 was 1.41 µM [rising, full curve, poor fit].

With `CCN(c1cccc(C)c1)S(=O)(=O)c1ccc(-c2cc(C)no2)s1` as the compound, how does the AC50 [1] read?
Its AC50 is 12.6 µM [rising, partial curve, poor fit].

And the AC50 [2]?
The AC50 was 12.6 µM [falling, partial curve].

Which AC50 [1] does the source give for `O=C(COc1ccc([N+](=O)[O-])cc1)Nc1ccc2c(c1)nc1n2CCOC1` here?
The AC50 was 3.16 µM [rising, partial curve, poor fit].

For `Cc1cccc(NS(=O)(=O)c2cnc(Cl)c(Br)c2)n1`, which AC50 [2] is on record?
The AC50 was 23.1 µM [rising, single point].

For `Cc1cc(C)cc(-n2c(C)cc(/C=N/NC(=O)c3cccc([N+](=O)[O-])c3C)c2C)c1`, which AC50 [1] is on record?
Its AC50 is 32.6 µM [falling, single point].

With `O=C(Nc1ccnn1C1CCN(Cc2ccc(O)c(Cl)c2)CC1)C1CCCC1` as the compound, how does the AC50 [1] read?
Its AC50 is 12.6 µM [rising, partial curve, poor fit].

For `CN(C(=O)c1ccc2nccnc2c1)C1CCCCC1`, which AC50 [1] is on record?
Its AC50 is 35.5 µM [falling, single point].

Which AC50 [1] does the source give for `Cc1c(C#N)c(O)n(CCO)c(=O)c1N=Nc1ccc2c(c1)COC2=O` here?
The AC50 was 35.5 µM [rising, single point].

With `Cc1csc(NC(=O)CSc2ncnc3c2cnn3-c2ccccc2Cl)n1` as the compound, how does the AC50 [1] read?
The AC50 was 25.9 µM [falling, partial curve].

With `COc1ccc(NC(=O)COC(=O)CN2C(=O)C3CC=CCC3C2=O)c([N+](=O)[O-])c1` (configuration not stated) as the compound, how does the AC50 [1] read?
Its AC50 is 23.1 µM [rising, single point].

Which AC50 [1] does the source give for `Cc1cc(NC(=O)c2cncc(Br)c2)no1` here?
Its AC50 is 31.6 µM [falling, single point].

Which AC50 [1] does the source give for `Cc1c(Cl)cccc1Nc1ncccc1C(=O)OCC(O)CO` (configuration not stated) here?
The AC50 was 1.12 µM [rising, full curve, poor fit].

Which AC50 [1] does the source give for `COc1ccc(/C=N/NC(=O)c2nonc2N)cc1OC` here?
The AC50 was 12.6 µM [rising, partial curve, poor fit].

For `CCN(CC)CCC(c1cc(OC)c(OC)c(OC)c1)c1c(OC)cc(OC)c2c(-c3ccccc3)cc(=O)oc12` (configuration not stated), which AC50 [1] is on record?
The AC50 was 35.5 µM [falling, single point].

With `COCC(=O)N1CCC(Oc2ccc(C(=O)NCCc3ccncc3)cc2)CC1` as the compound, how does the AC50 [1] read?
Its AC50 is 4.47 µM [rising, partial curve, poor fit].

For `Cn1cc(CNCc2ccccc2OCC(O)CN2CCc3ccccc3C2)cn1` (configuration not stated), which AC50 [1] is on record?
The AC50 was 35.5 µM [falling, single point].

With `Cn1nnc(NC(=S)NC(=O)c2cccc3c(Cl)cccc23)n1` as the compound, how does the AC50 [1] read?
The AC50 was 10 µM [rising, partial curve].

With `O=C1NCCN1C(=O)C12CC3CC(CC(C3)C1)C2` as the compound, how does the AC50 [1] read?
The AC50 was 3.16 µM [falling, partial curve, poor fit].

Which AC50 [1] does the source give for `Cc1cc(C(F)F)n2nc(C(=O)Nc3ccc(S(=O)(=O)NC45CC6CC(CC(C6)C4)C5)cc3)nc2n1` here?
The AC50 was 5.17 µM [falling, full curve, poor fit].

For `Cc1cccc(Nc2nc3ccccc3s2)c1C`, which AC50 [1] is on record?
Its AC50 is 0.92 µM [rising, full curve].

Which AC50 [1] does the source give for `Cc1ccc(CN(Cc2ccccc2)C(=S)NCC(=O)NCc2cccnc2)o1` here?
Its AC50 is 35.5 µM [falling, single point].

For `CCOCCCNCC(O)c1ccccc1` (configuration not stated), which AC50 [1] is on record?
The AC50 was 0.731 µM [falling, full curve, poor fit].

Which AC50 [1] does the source give for `CCCC(=O)NC(=S)Nc1cc(-c2nc3ncccc3o2)ccc1C` here?
The AC50 was 0.708 µM [rising, full curve, poor fit].

Which AC50 [1] does the source give for `O=C(Nc1ccccc1C(F)(F)F)c1cc(-c2ccc(O)cc2)on1` here?
Its AC50 is 10 µM [falling, partial curve, poor fit].

With `O=C(OCCc1cc2ccccc2c(=O)o1)c1cccs1` as the compound, how does the AC50 [1] read?
Its AC50 is 20.6 µM [rising, partial curve, poor fit].
